This is an account of results in PubChem BioAssay AID248 (DTP/NCI, 2004).

This test deals with L1210 leukemia ip in BDF1 mice, survival T/C. In words: NCI In Vivo Anticancer Drug Screen. Data for tumor model L1210 Leukemia (intraperitoneal) in B6D2F1 (BDF1) mice. The note with it: T/C endpoint: mean survival time, higher T/C = longer survival.
The mark [1] stands for this setting: dose: 400.0 mg/kg/injection, schedule: Q04DX002 (ip), vehicle: saline with Tween-80.
[2] abbreviates: dose: 400.0 mg/kg/injection, schedule: Q04DX002 (ip), vehicle: Klucel (hydroxypropylcellulose) (HPC).
The mark [3] stands for this setting: dose: 400.0 mg/kg/injection, schedule: Q04DX003 (ip), vehicle: saline with Tween-80.

The list shows only some results of the screen, not a fair sample: it is rich in T/C values a quarter to a half above the control, in often repeated tests (any T/C) and in doses without a T/C. Other doses and runs of a compound stand elsewhere. T/C: endpoint of the treated group in % of that of the vehicle group. Some doses have a count of surviving animals in place of a T/C: the source holds a T/C of zero for them, seemingly a mark for toxic or unscored doses. Some doses without a T/C left all or most animals alive at the check, yet need not have been tolerated: survival well below the control is almost never listed, so the zero probably covers shortened survival too. Survivors were counted at the toxicity check, usually on the fifth day, unless a day is given; later deaths do not show. Schedule codes are those of the source, taken here to give the interval after Q, in days (D) or hours (H), and the number of doses after X. Some schedule codes hold Z or #, which are not explained here. For survival time, the PubChem record calls one and a half times the control and up active, and a quarter to a half above the control has no call in these data; cut-offs in other NCI protocols can differ.

Take `S=C(N/N=C/c1ccc(-c2ccccc2)cc1)Nc1ccccc1`: where the note is “dose: 400.0 mg/kg/injection, schedule: Q01DX009 (ip), vehicle: saline with Tween-80”, the survivor count is 3 of 6.

Take `CCCC(C(=O)OCCN(CC)CC)(c1ccccc1)c1ccccc1`: the survivor count is 0 of 6 (dose: 100.0 mg/kg/injection, schedule: Q01DX009 (ip), vehicle: saline) and 0 of 4 (dose: 200.0 mg/kg/injection, schedule: Q04DX003 (ip), vehicle: saline).

With `NC(=O)c1cc(Cl)ccn1`, the survivor count under setting [1] is given as 3 of 3.

With `CC(=O)OC/N=[N+](/C)[O-]`, the survivor count is 0 of 6 (dose: 25.0 mg/kg/injection, schedule: Q01DX Z (ip), vehicle: saline); 0 of 6 (dose: 50.0 mg/kg/injection, schedule: Q01DX Z (ip), vehicle: saline); 0 of 6 (dose: 100.0 mg/kg/injection, schedule: Q01DX Z (ip), vehicle: saline).

Turning to `C[N+]1(C)CCS(=O)(=O)CC1`, under setting [2], the survivor count was 0 of 3.

Turning to `CC12CCC(=O)C=C1CCCC2=O` (stereo unspecified), the survivor count (dose: 400.0 mg/kg/injection, schedule: Q04DX003 (ip), vehicle: saline) was 0 of 6.

As for `CCOC(=O)c1ccc(NC(=O)Nc2cccc3c(O)cccc23)cc1`, the survivor count reads like this: (dose: 100.0 mg/kg/injection, schedule: Q04DX003 (ip), vehicle: saline with Tween-80) 6 of 6; (dose: 400.0 mg/kg/injection, schedule: Q01DX001 (ip), vehicle: saline with Tween-80) 6 of 6; under setting [3], 6 of 6.

On to `c1ccc(N2CN(c3ccccc3)N(c3ccccc3)CN2c2ccccc2)cc1`, for which the survivor count (dose: 400.0 mg/kg/injection, schedule: Q01DX001 (ip), vehicle: other) was 6 of 6.

On to `c1cc2c3c(c1)nc(CCCc1nc4cccc5c4n1CCC5)n3CCC2`, for which the survivor count was 6 of 6 (dose: 200.0 mg/kg/injection, schedule: Q04DX003 (ip), vehicle: saline with Tween-80) and 6 of 6 under setting [3].

For `C/C=C/C=C/COC(=O)CCCCCCC`, the T/C (dose: 100.0 mg/kg/injection, schedule: Q04DX002 (ip), vehicle: saline) was 125 % of control.

For `CC(O)(c1ccncc1)c1cc2ccccc2n1S(=O)(=O)c1ccccc1` (stereo unspecified), the survivor count under setting [2] is listed as 1 of 3.

Consider `CC(=O)NS(=O)(=O)c1ccc(NC(=O)c2ccccc2C(=O)O)cc1`, for which the survivor count under setting [3] is 6 of 6.

For the molecule `Br[CH2][Sn]([Br])([Br])[CH2]Br`, the survivor count is, setting by setting: (dose: 100.0 mg/kg/injection, schedule: Q04DX002 (ip), vehicle: saline with Tween-80) 0 of 3; (dose: 200.0 mg/kg/injection, schedule: Q04DX002 (ip), vehicle: saline with Tween-80) 0 of 3; under setting [1], 0 of 3.
